Some entries share one result that the patent states for a list of compounds.
System: Plasmopara viticola
Test: Plasmopara test (grapevines)/protective
Type: in vivo
Details: protective, 100 g/ha, evaluated 6 days after inoculation

## COCC(=O)NC(=O)C(=NOC)c1ccccc1CO/N=C(\C)c1ccc(C(F)(F)F)cc1 [Example 1, 2-methoxy-N-(methoxyimino-{2-[1-(4-trifluoromethylphenyl)-ethylideneaminooxymethyl]-phenyl}-acetyl)-acetamide]
  efficacy: ≥ 90%

Reference: patent publication US6350909B1, “Methoxymino-phenylacetamide derivatives and their utilization as pesticides” (Bayer Aktiengesellschaft, priority 1998, dated 2002)
